The target in test [1] is laminin-8 (α4/β1/γ1) (human (endogenous in the coculture of bone marrow MSCs of healthy donors with ARP-1 or RPMI8226)) (UniProt Q16363+P07942+P11047). Briefly: co-IP; lysates of ARP-1 or RPMI8226 myeloma cells cocultured with MSCs; agarose-immobilized antibody against integrin α6, laminin α4 or EGFR, 4°C overnight, six washes; Western blot; IgG as control.
Test [2] deals with epidermal growth factor receptor (human (endogenous in the coculture of bone marrow MSCs of healthy donors with ARP-1 or RPMI8226)) (UniProt P00533). Described as above.

Chains of the proteins cited; added tags and fusions are not shown. Lines headed by an entry give the natural chain unless they say otherwise; changes in a name come on top.
UniProt Q16363: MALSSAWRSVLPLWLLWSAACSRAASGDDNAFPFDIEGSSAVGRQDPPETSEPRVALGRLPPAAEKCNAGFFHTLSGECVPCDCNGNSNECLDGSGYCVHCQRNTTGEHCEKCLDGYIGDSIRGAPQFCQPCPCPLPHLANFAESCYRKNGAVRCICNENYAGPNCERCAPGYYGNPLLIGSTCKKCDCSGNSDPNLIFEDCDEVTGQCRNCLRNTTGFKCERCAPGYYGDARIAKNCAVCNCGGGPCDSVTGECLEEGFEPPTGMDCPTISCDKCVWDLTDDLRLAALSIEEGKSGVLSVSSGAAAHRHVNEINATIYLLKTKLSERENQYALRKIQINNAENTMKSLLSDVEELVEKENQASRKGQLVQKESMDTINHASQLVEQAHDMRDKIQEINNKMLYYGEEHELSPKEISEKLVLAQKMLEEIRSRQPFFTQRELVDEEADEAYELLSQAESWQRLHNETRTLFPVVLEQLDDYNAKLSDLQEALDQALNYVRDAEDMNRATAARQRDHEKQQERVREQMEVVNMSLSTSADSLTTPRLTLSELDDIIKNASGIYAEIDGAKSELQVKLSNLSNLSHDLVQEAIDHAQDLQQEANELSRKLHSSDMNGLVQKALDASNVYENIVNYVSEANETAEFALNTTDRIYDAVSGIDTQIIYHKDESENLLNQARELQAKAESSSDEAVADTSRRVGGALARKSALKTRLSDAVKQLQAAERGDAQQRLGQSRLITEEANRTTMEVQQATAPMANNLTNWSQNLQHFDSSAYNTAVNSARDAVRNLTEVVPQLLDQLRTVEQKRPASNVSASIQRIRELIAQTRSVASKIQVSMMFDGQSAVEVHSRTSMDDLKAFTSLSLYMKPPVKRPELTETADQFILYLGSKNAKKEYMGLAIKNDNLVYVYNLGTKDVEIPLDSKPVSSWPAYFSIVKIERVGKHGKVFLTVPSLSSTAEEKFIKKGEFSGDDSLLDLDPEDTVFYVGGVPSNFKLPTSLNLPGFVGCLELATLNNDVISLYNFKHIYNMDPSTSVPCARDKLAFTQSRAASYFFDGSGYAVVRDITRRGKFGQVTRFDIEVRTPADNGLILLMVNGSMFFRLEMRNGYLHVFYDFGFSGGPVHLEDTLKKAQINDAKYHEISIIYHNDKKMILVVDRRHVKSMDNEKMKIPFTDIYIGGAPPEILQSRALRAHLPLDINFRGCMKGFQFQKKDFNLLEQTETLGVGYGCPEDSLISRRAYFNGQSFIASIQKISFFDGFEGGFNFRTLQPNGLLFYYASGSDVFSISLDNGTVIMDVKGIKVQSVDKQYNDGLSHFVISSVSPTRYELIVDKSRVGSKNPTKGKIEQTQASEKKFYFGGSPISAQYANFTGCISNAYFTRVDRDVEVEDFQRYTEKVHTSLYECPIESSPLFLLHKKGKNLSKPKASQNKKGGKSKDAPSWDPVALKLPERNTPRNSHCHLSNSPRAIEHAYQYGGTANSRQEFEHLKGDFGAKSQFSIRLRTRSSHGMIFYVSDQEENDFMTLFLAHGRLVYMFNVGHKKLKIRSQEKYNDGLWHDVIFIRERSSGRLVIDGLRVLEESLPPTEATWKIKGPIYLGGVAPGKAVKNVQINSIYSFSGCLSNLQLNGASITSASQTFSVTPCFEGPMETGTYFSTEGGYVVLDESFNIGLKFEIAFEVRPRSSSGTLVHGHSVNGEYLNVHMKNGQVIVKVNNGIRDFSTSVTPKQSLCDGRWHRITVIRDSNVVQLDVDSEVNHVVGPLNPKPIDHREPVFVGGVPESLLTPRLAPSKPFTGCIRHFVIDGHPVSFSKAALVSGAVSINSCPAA
UniProt P07942: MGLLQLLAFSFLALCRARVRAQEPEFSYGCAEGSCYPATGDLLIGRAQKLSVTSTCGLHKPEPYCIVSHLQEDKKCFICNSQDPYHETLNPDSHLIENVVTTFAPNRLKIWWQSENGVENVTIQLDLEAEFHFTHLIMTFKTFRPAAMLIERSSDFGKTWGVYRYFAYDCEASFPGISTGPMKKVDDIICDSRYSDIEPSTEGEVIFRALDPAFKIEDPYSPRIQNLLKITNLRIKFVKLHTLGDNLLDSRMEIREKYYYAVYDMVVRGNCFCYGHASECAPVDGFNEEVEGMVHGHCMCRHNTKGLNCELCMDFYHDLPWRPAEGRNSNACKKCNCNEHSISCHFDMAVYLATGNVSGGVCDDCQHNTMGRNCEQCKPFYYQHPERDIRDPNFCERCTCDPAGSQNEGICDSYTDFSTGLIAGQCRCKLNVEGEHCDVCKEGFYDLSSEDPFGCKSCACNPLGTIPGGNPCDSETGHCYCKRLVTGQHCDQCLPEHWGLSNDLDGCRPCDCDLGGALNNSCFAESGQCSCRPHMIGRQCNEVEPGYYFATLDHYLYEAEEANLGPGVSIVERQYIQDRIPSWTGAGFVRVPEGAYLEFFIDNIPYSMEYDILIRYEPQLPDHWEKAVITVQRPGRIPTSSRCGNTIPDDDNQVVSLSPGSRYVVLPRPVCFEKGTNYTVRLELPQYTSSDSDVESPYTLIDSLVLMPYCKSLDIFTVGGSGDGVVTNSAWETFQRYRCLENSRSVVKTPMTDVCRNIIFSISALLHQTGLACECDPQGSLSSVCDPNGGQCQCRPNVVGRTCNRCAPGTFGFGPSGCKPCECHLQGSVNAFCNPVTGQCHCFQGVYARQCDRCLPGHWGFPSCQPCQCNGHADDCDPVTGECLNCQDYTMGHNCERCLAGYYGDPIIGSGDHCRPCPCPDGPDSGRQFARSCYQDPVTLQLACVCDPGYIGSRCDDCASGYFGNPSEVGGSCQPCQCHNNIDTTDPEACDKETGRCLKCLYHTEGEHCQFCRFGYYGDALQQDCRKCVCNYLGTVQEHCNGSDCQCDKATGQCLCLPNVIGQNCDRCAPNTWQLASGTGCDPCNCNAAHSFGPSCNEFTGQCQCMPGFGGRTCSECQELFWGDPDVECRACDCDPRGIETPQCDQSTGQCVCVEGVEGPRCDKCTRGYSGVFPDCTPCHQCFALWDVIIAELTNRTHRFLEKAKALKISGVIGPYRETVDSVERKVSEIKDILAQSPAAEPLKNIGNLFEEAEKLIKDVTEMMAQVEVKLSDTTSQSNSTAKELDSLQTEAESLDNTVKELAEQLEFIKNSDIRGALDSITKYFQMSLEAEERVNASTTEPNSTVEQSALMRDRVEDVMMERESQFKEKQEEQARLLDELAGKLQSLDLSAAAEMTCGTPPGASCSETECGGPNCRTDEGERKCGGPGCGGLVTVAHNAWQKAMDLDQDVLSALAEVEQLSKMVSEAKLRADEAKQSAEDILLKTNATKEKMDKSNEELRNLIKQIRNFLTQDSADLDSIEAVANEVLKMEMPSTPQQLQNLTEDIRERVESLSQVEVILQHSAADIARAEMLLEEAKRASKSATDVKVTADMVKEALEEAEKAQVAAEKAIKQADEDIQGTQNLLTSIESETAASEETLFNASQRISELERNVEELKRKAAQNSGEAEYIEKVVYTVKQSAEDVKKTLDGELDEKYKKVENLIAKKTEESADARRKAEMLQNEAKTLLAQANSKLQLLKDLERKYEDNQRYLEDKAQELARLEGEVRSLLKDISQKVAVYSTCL
UniProt P11047: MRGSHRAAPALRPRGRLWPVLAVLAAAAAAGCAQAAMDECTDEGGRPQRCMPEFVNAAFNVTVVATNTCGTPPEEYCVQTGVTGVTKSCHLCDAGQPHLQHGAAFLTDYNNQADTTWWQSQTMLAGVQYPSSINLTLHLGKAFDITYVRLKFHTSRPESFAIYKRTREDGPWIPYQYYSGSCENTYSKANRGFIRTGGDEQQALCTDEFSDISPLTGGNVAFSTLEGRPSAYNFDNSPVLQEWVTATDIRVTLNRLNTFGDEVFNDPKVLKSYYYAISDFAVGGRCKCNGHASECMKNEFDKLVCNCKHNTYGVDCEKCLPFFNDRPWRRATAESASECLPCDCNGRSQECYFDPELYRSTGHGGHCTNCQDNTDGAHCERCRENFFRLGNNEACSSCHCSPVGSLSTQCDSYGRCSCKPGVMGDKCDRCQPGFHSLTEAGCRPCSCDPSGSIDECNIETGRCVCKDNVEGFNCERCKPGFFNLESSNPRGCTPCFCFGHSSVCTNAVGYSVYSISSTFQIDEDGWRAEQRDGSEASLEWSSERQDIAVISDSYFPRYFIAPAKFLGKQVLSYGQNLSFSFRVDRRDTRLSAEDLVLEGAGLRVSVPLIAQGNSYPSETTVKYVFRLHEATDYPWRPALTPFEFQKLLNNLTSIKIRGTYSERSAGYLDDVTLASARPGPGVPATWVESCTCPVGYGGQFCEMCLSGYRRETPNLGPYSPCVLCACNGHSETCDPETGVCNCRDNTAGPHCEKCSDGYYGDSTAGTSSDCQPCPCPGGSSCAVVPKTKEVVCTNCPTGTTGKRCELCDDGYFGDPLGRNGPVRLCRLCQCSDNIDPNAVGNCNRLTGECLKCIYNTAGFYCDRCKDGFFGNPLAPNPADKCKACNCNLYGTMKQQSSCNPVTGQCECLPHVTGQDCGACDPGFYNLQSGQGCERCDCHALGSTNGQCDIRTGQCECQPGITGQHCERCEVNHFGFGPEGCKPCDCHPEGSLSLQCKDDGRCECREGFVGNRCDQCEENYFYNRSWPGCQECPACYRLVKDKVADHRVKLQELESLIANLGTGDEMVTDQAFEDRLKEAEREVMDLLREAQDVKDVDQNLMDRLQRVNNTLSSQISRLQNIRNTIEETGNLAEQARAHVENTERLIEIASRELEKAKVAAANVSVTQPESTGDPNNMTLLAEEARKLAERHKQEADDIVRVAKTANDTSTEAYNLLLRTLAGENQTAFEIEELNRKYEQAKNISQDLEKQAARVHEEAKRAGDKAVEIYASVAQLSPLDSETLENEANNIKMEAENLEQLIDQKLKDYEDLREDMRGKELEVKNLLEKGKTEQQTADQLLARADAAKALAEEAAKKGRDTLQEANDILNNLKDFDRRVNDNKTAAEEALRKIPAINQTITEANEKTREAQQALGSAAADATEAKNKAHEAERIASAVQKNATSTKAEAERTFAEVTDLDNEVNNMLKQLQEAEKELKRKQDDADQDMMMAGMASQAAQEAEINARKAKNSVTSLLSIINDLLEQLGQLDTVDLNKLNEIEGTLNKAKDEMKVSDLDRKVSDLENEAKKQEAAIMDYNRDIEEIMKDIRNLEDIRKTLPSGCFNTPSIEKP

No constants are given. Whether binding was seen depends on the method and setting. In cells and extracts the contact can be indirect. Some binding calls cover weakened binding; strength is not graded here.

With “epidermal growth factor receptor (from UniProt P00533 25-1210)”, the binding entry in test [1] is recorded as “binds”. Take “laminin-8 (α4/β1/γ1) (from UniProt Q16363 25-1823; P07942 22-1786; P11047 34-1609) (complex)”: in test [2], the binding result is reported as “binds”.

The record behind these values is article PMC8209508.
